In article PMC8914023:
Results are given in words; binding and its absence hold for the method and conditions named. A result given as binding can be weak or reduced; the word gives no strength. Where a sequence is shown, tags or fusion partners need not be part of it.

Biological target: T1, Entamoeba histolytica actophorin (EhActo) (Entamoeba histolytica) (UniProt C4LVG4)
T1 sequence: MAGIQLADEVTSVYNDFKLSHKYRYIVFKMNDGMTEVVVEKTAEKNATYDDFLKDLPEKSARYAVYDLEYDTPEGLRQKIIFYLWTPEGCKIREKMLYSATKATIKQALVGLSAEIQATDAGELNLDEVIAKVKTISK
Assay: co-sedimentation; 5 µM F-actin and 5 µM EhP3 with 0, 2.5, 5 or 10 µM EhActo; 100,000 g 45 min 4°C, SDS-PAGE of supernatant and pellet; both purified

binding: binds
Substance: EhP3 (Entamoeba histolytica 14-3-3 protein isoform 3)
